Measured values taken from doi:10.1101/2020.04.09.033621.
Residue numbers refer to the chain shown, from its start. Results are given in words; binding and its absence hold for the method and conditions named. In cells and extracts the contact can be indirect. Some binding calls cover weakened binding; strength is not graded here. For some assays here: Tags and fused reporters may be left off the sequences shown.

Protein sequences, listed by entry. Tags and fused reporters are not part of them.
UniProt Q9Y6Q9: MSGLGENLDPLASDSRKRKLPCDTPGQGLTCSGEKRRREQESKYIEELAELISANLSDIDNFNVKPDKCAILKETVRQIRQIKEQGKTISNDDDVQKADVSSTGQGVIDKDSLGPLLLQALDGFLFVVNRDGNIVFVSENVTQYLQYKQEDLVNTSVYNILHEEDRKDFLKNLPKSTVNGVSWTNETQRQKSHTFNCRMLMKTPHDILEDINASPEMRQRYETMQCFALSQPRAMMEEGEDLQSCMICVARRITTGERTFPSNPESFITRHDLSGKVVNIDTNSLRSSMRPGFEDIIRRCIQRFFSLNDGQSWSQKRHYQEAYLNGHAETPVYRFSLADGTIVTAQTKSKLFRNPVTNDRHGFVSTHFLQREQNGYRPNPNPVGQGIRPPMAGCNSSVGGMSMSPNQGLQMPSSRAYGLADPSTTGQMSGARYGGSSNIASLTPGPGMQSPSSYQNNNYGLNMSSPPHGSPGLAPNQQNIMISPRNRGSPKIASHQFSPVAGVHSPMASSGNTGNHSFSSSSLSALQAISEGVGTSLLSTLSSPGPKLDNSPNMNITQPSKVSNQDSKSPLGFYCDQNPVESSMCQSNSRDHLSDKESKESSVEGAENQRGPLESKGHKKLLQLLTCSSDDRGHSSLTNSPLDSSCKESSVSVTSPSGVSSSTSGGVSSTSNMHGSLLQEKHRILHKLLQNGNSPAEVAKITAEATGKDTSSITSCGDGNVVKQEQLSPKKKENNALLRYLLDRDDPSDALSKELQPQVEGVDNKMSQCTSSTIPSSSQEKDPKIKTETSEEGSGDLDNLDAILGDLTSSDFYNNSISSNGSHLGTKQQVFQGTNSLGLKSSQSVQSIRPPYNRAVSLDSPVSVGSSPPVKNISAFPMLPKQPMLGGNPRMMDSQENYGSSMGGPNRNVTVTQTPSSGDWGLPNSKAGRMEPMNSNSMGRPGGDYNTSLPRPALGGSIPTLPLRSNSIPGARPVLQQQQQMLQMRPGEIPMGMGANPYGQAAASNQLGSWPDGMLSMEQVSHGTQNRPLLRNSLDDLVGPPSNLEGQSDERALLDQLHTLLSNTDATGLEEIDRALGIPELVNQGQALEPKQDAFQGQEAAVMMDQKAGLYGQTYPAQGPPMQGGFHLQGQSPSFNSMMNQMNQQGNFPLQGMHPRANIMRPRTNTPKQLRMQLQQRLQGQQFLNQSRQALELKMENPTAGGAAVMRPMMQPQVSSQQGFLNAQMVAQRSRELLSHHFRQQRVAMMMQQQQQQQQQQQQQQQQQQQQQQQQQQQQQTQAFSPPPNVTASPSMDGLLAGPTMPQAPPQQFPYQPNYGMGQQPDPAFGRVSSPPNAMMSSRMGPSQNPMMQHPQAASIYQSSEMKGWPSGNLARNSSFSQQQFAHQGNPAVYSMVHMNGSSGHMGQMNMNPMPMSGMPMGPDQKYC
UniProt Q92831: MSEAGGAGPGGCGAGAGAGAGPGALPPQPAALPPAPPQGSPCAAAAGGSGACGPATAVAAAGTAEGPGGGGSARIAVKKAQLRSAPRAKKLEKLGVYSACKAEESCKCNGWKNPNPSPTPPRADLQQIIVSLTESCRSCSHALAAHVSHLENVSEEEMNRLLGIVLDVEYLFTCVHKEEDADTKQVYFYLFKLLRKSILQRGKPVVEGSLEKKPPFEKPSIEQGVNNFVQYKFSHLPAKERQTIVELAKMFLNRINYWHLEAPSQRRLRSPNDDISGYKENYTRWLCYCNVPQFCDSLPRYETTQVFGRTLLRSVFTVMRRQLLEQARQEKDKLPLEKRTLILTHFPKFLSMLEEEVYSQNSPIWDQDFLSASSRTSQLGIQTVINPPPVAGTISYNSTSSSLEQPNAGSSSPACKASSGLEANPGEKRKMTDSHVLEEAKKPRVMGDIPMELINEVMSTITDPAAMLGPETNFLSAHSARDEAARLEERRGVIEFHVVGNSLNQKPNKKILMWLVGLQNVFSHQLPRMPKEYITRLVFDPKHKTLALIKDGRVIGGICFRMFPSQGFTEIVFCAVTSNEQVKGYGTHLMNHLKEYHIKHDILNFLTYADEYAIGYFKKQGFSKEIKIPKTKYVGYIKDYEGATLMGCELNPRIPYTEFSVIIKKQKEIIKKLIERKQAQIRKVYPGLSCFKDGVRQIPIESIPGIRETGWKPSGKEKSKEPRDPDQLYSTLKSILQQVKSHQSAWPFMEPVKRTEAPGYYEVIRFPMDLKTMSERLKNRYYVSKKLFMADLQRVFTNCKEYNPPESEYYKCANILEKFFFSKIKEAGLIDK
UniProt Q9UM11: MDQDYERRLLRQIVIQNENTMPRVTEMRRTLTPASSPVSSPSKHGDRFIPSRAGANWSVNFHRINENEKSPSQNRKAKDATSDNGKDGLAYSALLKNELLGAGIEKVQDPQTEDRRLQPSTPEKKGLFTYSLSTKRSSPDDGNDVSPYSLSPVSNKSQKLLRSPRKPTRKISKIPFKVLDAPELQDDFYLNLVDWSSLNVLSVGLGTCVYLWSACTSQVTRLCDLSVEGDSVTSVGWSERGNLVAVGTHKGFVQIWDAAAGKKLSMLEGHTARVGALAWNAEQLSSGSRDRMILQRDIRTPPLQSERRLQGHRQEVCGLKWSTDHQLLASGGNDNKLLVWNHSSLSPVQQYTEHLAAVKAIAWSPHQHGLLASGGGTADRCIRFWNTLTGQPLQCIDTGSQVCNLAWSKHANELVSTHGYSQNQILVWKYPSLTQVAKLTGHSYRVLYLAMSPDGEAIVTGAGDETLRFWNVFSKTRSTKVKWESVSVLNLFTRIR

How the values were obtained:
Experiment in all cases: co-IP
[1] = target: T1, Myc-UHRF1^WT (human) (UniProt Q96T88)
T1 sequence: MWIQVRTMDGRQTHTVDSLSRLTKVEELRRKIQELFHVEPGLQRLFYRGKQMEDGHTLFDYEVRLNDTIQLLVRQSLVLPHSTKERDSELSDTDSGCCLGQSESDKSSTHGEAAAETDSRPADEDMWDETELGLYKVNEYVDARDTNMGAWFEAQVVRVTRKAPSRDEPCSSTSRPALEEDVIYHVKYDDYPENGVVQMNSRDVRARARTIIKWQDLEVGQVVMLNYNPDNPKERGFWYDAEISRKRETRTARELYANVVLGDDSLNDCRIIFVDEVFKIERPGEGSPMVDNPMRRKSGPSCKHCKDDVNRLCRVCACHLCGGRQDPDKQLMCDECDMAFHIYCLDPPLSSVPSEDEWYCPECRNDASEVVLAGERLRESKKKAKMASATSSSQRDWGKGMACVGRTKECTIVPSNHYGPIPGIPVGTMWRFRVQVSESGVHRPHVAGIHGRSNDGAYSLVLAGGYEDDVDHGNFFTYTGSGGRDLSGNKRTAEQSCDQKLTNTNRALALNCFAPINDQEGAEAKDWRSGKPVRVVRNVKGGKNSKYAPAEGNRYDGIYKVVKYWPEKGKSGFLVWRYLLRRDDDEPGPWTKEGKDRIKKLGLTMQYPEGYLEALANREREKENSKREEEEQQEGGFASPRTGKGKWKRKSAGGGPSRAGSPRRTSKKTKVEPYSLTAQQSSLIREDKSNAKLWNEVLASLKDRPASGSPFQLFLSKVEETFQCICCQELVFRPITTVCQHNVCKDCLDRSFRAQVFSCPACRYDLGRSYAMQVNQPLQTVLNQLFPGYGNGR

[2] = target: FLAG-NCOA3 (human) (UniProt Q9Y6Q9)
[3] = target: FLAG-PCAF (human) (UniProt Q92831)
[4] = target: T2, Myc-UHRF1^KEN:AAA (human) (UniProt Q96T88)
T2 sequence: T1 sequence with K622A, E623A, N624A

[5] = target: T3, FLAG-TTF2 (human) (UniProt Q9UNY4)
T3 sequence: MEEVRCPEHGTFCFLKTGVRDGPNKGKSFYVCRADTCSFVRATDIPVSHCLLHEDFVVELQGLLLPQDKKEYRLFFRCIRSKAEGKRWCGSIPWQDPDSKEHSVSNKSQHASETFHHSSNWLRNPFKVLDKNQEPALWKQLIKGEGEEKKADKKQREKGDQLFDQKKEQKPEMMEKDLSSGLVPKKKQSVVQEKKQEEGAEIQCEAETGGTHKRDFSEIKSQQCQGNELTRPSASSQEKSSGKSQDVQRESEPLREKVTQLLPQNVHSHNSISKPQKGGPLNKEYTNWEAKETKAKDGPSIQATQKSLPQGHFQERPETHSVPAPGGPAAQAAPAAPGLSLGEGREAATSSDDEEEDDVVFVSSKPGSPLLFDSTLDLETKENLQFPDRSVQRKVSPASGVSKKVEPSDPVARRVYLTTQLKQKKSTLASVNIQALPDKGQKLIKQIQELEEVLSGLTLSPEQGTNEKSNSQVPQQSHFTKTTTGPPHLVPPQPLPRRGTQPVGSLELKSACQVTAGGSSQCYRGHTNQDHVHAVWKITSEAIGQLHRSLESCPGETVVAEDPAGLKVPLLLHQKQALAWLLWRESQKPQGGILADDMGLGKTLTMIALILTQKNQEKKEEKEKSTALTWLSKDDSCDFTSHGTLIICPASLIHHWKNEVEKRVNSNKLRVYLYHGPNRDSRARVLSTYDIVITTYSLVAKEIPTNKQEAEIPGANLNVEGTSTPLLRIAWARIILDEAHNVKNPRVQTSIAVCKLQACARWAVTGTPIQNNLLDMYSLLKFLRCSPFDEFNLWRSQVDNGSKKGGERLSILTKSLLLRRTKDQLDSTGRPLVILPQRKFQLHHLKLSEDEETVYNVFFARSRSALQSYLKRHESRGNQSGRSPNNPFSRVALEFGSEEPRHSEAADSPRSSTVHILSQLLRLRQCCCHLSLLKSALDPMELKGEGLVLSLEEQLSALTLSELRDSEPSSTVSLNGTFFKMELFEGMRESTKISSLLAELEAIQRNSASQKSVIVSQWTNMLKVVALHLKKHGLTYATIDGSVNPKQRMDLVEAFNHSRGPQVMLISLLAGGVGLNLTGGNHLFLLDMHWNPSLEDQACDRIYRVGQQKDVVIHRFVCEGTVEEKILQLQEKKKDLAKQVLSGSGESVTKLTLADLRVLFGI

Measured: binding

HA-Cdh1 (from UniProt Q9UM11 1-496)
binds: all assays above
